From publication PMC8546089 come the findings set out here.

Amino acid sequences for entries named in this document (tags omitted).
UniProt P46937: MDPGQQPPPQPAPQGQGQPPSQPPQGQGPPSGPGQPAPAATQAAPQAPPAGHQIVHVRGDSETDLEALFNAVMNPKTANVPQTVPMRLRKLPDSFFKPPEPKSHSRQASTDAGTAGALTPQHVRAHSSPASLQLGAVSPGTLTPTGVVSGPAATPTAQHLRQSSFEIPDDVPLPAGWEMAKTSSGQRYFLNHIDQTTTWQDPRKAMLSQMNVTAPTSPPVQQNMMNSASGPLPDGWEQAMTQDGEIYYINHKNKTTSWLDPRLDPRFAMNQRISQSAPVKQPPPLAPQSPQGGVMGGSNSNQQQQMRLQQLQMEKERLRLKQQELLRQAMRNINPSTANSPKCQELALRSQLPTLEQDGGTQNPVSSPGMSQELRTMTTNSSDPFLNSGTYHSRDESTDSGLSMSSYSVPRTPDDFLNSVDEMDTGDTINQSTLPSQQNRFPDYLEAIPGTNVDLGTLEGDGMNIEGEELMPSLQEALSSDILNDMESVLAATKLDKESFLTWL

No constants are given. Whether binding was seen depends on the method and setting. In cells and extracts the contact can be indirect. Some results given as binding are weak or reduced against the parent protein; the word gives no strength.

The target in this experiment is Yes-associated protein (human (endogenous in LM7)) (UniProt P46937). Kind of experiment: co-IP; whole cell extracts of LM7 cells treated for 2 h with DMSO, Riluzole or Riluzole + PPY A; extract in 400 mM KCl buffer diluted to 200 mM KCl, 10 mM Tris-HCl pH 7.9, 0.25% NP-40; protein A beads with anti-YAP antibody, 2 h at 4 °C; blot with anti-p73, reprobed with anti-YAP.

B1: p73 (protein, UniProt O15350 1-636)
chain: MAQSTATSPDGGTTFEHLWSSLEPDSTYFDLPQSSRGNNEVVGGTDSSMDVFHLEGMTTSVMAQFNLLSSTMDQMSSRAASASPYTPEHAASVPTHSPYAQPSSTFDTMSPAPVIPSNTDYPGPHHFEVTFQQSSTAKSATWTYSPLLKKLYCQIAKTCPIQIKVSTPPPPGTAIRAMPVYKKAEHVTDVVKRCPNHELGRDFNEGQSAPASHLIRVEGNNLSQYVDDPVTGRQSVVVPYEPPQVGTEFTTILYNFMCNSSCVGGMNRRPILIIITLEMRDGQVLGRRSFEGRICACPGRDRKADEDHYREQQALNESSAKNGAASKRAFKQSPPAVPALGAGVKKRRHGDEDTYYLQVRGRENFEILMKLKESLELMELVPQPLVDSYRQQQQLLQRPSHLQPPSYGPVLSPMNKVHGGMNKLPSVNQLVGQPPPHSSAATPNLGPVGPGMLNNHGHAVPANGEMSSSHSAQSMVSGSHCTPPPPYHADPSLVSFLTGLGCPNCIEYFTSQGLQSIYHLQNLTIEDLGALKIPEQYRMTIWRGLQDLKQGHDYSTAQQLLRSSNAATISIGGSGELQRQRVMEAVHFRVRHTITIPNRGGPGGGPDEWADFGFDLPDCKARKQPIKEEFTEAEIH
As for B1, the binding entry was “binds”.
